In paper PMC2655719 one finds binding data, which are given here for one molecule.

Chains of the proteins cited; added tags and fusions are not shown. Lines headed by an entry give the natural chain unless they say otherwise; changes in a name come on top.
UniProt P61224: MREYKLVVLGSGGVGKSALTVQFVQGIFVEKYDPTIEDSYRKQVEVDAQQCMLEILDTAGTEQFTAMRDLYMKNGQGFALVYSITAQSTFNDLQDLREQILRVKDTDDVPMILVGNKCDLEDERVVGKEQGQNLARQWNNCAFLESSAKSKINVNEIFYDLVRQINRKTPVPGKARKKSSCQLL

This assay addresses Gal4p DNA binding domain fusion of Rap1B (glycine-12-to-valine) (UniProt P61224). Put plainly: two-hybrid; S. cerevisiae PJ69-4A; GTPases fused to the Gal4p DNA binding domain (pGBT9), RBDs fused to the Gal4p activation domain (pACTII); growth on SDA-Leu-Trp-His with 3AT.

Results are given in words; binding and its absence hold for the method and conditions named. Some binding calls cover weakened binding; strength is not graded here. Where a sequence is shown, tags or fusion partners need not be part of it.

B1: Gal4p activation domain fusion of RGS14 (amino acids 263-544) (domain or fragment, UniProt O08773 263-544)
chain: NSSASLDLGFLAFVSSKSESHRKSLGSGEGESESRPGKYCCVYLPDGTASLALARPGLTIRDMLAGICEKRGLSLPDIKVYLVGKEQKALVLDQDCTVLADQEVRLENRITFQLELVGLERVVRISAKPTKRLQEALQPILAKHGLSLDQVVLHRPGEKQLVDLENLVSSVASQTLVLDTLPDAKTREASSIPPCRSQGCLPRTQTKDSHLPPLSSSLSVEDASGSTGKRQTCDIEGLVELLNRVQSSGAHDQRGLLRKEDLVLPEFLQLPSQRPGSQEAPP
With B1, the binding entry is “binds”.
